Experimental data: publication PMC4148118
These are yes or no findings as the source states them, for the method shown. For some of these results: Binding seen in cells or lysates may run through a third protein. Some results given as binding are weak or reduced against the parent protein; the word gives no strength. For some of these results: Where a sequence is shown, tags or fusion partners need not be part of it. One block for each binder: values may come before it.

Assays:
[1] = target: T1, GST-Id1 fusion protein (UniProt P41134); test: pull-down; GST pull-down; GST-Id (Id1-4) fusion proteins from BL-21 bacteria with in vitro-translated GCIP; SDS-PAGE, probed with an anti-GCIP antibody; GST as control; only the target purified
T1 sequence: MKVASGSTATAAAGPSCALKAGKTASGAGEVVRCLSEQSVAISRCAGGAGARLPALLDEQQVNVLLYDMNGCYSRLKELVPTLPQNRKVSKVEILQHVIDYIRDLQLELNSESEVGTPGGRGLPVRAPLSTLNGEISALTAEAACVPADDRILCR

[2] = target: T2, GST-Id4 fusion protein (UniProt P47928); test: as above
T2 sequence: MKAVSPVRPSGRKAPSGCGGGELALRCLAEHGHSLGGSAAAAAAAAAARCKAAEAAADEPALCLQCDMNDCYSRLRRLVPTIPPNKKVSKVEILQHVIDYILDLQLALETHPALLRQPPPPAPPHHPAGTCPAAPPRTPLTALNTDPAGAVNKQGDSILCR

[3] = target: T3, GST-Id2 fusion protein (UniProt Q02363); test: as above
T3 sequence: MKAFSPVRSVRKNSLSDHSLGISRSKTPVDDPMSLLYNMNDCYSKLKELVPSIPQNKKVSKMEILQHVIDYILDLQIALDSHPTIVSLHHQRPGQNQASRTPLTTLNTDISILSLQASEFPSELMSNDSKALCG

[4] = target: T4, GST-Id3 fusion protein (UniProt Q02535); test: as above
T4 sequence: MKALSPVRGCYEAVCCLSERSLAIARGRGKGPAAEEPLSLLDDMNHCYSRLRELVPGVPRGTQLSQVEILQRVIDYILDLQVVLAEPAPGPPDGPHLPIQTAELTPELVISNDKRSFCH

[5] = target: T5, pBIND full-length Id4 (UniProt P47928); test: two-hybrid; mammalian two-hybrid; full-length Id1, Id2, Id3, Id4 in pBIND against GCIP; truncated constructs for mapping
T5 sequence: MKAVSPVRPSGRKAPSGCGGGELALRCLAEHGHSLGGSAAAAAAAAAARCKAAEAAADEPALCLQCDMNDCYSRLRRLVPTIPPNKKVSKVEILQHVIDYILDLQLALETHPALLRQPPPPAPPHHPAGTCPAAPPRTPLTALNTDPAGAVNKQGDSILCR

[6] = target: T6, pBIND full-length Id1 (UniProt P41134); test: as above
T6 sequence: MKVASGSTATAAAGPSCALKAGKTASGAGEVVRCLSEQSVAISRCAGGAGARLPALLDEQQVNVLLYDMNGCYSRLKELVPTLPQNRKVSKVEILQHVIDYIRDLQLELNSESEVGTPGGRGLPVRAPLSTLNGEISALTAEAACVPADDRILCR

[7] = target: T7, pBIND full-length Id2 (UniProt Q02363); test: as above
T7 sequence: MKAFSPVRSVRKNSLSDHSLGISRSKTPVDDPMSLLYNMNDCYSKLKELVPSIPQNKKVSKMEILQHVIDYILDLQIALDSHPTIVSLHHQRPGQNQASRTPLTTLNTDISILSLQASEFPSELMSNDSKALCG

[8] = target: T8, pBIND full-length Id3 (UniProt Q02535); test: as above
T8 sequence: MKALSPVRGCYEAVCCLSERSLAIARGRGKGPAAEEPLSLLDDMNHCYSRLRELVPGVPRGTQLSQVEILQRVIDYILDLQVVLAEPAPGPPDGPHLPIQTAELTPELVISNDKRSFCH

[9] = target: T9, c-Myc-GCIP (human) (UniProt O95273); test: co-IP; 293T cells cotransfected with c-Myc-GCIP and Flag-Id1; lysis in NP-40 buffer (150 mM NaCl, 1.0% NP-40, 50 mM Tris-Cl pH 8.0); immunoprecipitation with anti-c-Myc, immunoblot with anti-Flag; also from cytoplasmic and nuclear fractions (100 μg protein each)
T9 sequence: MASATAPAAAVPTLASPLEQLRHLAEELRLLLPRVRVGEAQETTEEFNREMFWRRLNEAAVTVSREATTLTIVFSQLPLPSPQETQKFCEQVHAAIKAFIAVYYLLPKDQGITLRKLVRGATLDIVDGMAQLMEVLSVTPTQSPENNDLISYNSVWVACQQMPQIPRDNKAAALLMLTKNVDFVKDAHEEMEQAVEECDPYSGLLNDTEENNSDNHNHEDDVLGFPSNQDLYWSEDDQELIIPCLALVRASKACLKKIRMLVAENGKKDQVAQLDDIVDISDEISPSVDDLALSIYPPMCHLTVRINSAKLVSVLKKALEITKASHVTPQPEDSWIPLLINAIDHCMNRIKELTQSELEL

[10] = target: T10, endogenous GCIP (A549 cells) (human (endogenous in A549)) (UniProt O95273); test: co-IP; endogenous proteins in A549 cells, without or with BMP2 for 24 h; immunoprecipitation with an anti-GCIP antibody, Id1 detected
T10 sequence: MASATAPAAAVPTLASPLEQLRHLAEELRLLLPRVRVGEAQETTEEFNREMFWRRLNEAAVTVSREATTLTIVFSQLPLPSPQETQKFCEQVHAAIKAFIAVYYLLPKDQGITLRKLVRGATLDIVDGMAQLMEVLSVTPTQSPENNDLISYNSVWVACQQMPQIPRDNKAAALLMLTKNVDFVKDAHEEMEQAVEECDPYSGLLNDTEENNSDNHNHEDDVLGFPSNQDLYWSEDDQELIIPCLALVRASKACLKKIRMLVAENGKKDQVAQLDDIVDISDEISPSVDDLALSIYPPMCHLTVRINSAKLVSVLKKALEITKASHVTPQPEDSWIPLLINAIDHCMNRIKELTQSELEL

- binding [1]: binds
- binding [2]: binds weakly
- binding [3]: binds weakly
- binding [4]: binds
B1: in vitro-translated GCIP (protein, UniProt O95273 1-360)
chain: MASATAPAAAVPTLASPLEQLRHLAEELRLLLPRVRVGEAQETTEEFNREMFWRRLNEAAVTVSREATTLTIVFSQLPLPSPQETQKFCEQVHAAIKAFIAVYYLLPKDQGITLRKLVRGATLDIVDGMAQLMEVLSVTPTQSPENNDLISYNSVWVACQQMPQIPRDNKAAALLMLTKNVDFVKDAHEEMEQAVEECDPYSGLLNDTEENNSDNHNHEDDVLGFPSNQDLYWSEDDQELIIPCLALVRASKACLKKIRMLVAENGKKDQVAQLDDIVDISDEISPSVDDLALSIYPPMCHLTVRINSAKLVSVLKKALEITKASHVTPQPEDSWIPLLINAIDHCMNRIKELTQSELEL

- binding [5]: binds weakly
- binding [6]: binds
- binding [7]: binds weakly
- binding [8]: binds
B2: GCIP (mammalian two-hybrid construct) (protein, UniProt O95273 1-360)
chain: MASATAPAAAVPTLASPLEQLRHLAEELRLLLPRVRVGEAQETTEEFNREMFWRRLNEAAVTVSREATTLTIVFSQLPLPSPQETQKFCEQVHAAIKAFIAVYYLLPKDQGITLRKLVRGATLDIVDGMAQLMEVLSVTPTQSPENNDLISYNSVWVACQQMPQIPRDNKAAALLMLTKNVDFVKDAHEEMEQAVEECDPYSGLLNDTEENNSDNHNHEDDVLGFPSNQDLYWSEDDQELIIPCLALVRASKACLKKIRMLVAENGKKDQVAQLDDIVDISDEISPSVDDLALSIYPPMCHLTVRINSAKLVSVLKKALEITKASHVTPQPEDSWIPLLINAIDHCMNRIKELTQSELEL

- binding [9]: binds
B3: Flag-Id1 (protein, UniProt P41134 1-155)
chain: MKVASGSTATAAAGPSCALKAGKTASGAGEVVRCLSEQSVAISRCAGGAGARLPALLDEQQVNVLLYDMNGCYSRLKELVPTLPQNRKVSKVEILQHVIDYIRDLQLELNSESEVGTPGGRGLPVRAPLSTLNGEISALTAEAACVPADDRILCR

- binding [10]: binds
B4: endogenous Id1 (A549 cells) (protein, UniProt P41134 1-155)
chain: MKVASGSTATAAAGPSCALKAGKTASGAGEVVRCLSEQSVAISRCAGGAGARLPALLDEQQVNVLLYDMNGCYSRLKELVPTLPQNRKVSKVEILQHVIDYIRDLQLELNSESEVGTPGGRGLPVRAPLSTLNGEISALTAEAACVPADDRILCR
